# Measurements from article PMC10803770.
# Sequences of proteins named here, by UniProt entry; tags and fusion partners are left off. Residues count along the entry.
# UniProt Q9UBV2, residues 22-794: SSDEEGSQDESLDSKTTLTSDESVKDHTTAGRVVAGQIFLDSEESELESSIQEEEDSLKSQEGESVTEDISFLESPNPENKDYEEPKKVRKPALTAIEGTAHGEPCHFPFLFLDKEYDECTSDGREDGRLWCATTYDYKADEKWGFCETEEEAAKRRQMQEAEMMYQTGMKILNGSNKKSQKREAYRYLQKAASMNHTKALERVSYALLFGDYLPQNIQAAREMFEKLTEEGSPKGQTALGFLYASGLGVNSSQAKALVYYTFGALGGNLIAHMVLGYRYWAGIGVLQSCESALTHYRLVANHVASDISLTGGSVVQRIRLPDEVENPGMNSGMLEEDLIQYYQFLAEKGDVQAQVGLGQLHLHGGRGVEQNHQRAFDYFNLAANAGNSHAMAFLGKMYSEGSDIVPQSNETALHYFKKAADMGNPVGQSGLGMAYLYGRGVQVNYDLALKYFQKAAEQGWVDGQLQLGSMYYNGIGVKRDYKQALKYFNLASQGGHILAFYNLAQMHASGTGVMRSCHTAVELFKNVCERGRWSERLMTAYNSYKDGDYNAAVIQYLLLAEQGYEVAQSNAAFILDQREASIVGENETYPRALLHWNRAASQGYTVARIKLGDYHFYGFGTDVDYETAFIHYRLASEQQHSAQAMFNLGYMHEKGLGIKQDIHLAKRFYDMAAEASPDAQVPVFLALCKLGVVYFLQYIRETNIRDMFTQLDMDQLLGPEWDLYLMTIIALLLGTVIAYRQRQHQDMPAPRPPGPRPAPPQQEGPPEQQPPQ
# Assays:
# [1] = target: SEL1L (human (endogenous in HEK293T)) (UniProt Q9UBV2); test: affinity purification with mass spectrometry; anti-SEL1L IP and LC-MS/MS of the endogenous SEL1L interactome, WT vs. SEL1L KO HEK293T cells; 10 mg lysate
# [2] = target: SEL1L (human (endogenous in HEK293T)) (UniProt Q9UBV2); test: affinity purification with mass spectrometry; anti-SEL1L IP and LC-MS/MS, substrate screen: HRD1 KO compared with WT, SEL1L KO and IgG samples of HEK293T cells; Group A hits also detected in WT, Group B hits only in HRD1 KO; 10 mg lysate
binding [1],binding [2],Binder
binds,,"UBE2J1 (protein, UniProt Q9Y385 1-318) METRYNLKSPAVKRLMKEAAELKDPTDHYHAQPLEDNLFEWHFTVRGPPDSDFDGGVYHGRIVLPPEYPMKPPSIILLTANGRFEVGKKICLSISGHHPETWQPSWSIRTALLAIIGFMPTKGEGAIGSLDYTPEERRALAKKSQDFCCEGCGSAMKDVLLPLKSGSDSSQADQEAKELARQISFKAEVNSSGKTISESDLNHSFSLTDLQDDIPTTFQGATASTSYGLQNSSAASFHQPTQPVAKNTSMSPRQRRAQQQSQRRLSTSPDVIQGHQPRDNHTDHGGSAVLIVILTLALAALIFRRIYLANEYIFDFEL"
binds,binds,"OS9 (protein, UniProt Q13438 26-667) GGVGSLNLEELSEMRYGIEILPLPVMGGQSQSSDVVIVSSKYKQRYECRLPAGAIHFQREREEETPAYQGPGIPELLSPMRDAPCLLKTKDWWTYEFCYGRHIQQYHMEDSEIKGEVLYLGYYQSAFDWDDETAKASKQHRLKRYHSQTYGNGSKCDLNGRPREAEVRFLCDEGAGISGDYIDRVDEPLSCSYVLTIRTPRLCPHPLLRPPPSAAPQAILCHPSLQPEEYMAYVQRQADSKQYGDKIIEELQDLGPQVWSETKSGVAPQKMAGASPTKDDSKDSDFWKMLNEPEDQAPGGEEVPAEEQDPSPEAADSASGAPNDFQNNVQVKVIRSPADLIRFIEELKGGTKKGKPNIGQEQPVDDAAEVPQREPEKERGDPERQREMEEEEDEDEDEDEDEDERQLLGEFEKELEGILLPSDRDRLRSEVKAGMERELENIIQETEKELDPDGLKKESERDRAMLALTSTLNKLIKRLEEKQSPELVKKHKKKRVVPKKPPPSPQPTEEDPEHRVRVRVTKLRLGGPNQDLTVLEMKRENPQLKQIEGLVKELLEREGLTAAGKIEIKIVRPWAEGTEEGARWLTDEDTRNLKEIFFNILVPGAEEAQKERQRQKELESNYRRVWGSPGGEGTGDLDEFDF"
binds,,"FAM8A1 (protein, UniProt Q9UBU6 1-413) MAEGPEEARGHPPGQDDGGGDHEPVPSLRGPPTTAVPCPRDDPQAEPQAPGRPTAPGLAAAAAADKLEPPRELRKRGEAASGSGAELQEQAGCEAPEAAAPRERPARLSAREYSRQVHEWLWQSYCGYLTWHSGLAAFPAYCSPQPSPQSFPSGGAAVPQAAAPPPPQLGYYNPFYFLSPGAAGPDPRTAAGISTPAPVAGLGPRAPHVQASVRATPVTRVGSAAPSRSPSETGRQAGREYVIPSLAHRFMAEMVDFFILFFIKATIVLSIMHLSGIKDISKFAMHYIIEEIDEDTSMEDLQKMMVVALIYRLLVCFYEIICIWGAGGATPGKFLLGLRVVTCDTSVLIAPSRVLVIPSSNVSITTSTIRALIKNFSIASFFPAFITLLFFQHNRTAYDIVAGTIVVKRNGVR"
,binds,"phosphatidylinositol glycan anchor biosynthesis class K (protein, UniProt Q92643 28-395) SHIEDQAEQFFRSGHTNNWAVLVCTSRFWFNYRHVANTLSVYRSVKRLGIPDSHIVLMLADDMACNPRNPKPATVFSHKNMELNVYGDDVEVDYRSYEVTVENFLRVLTGRIPPSTPRSKRLLSDDRSNILIYMTGHGGNGFLKFQDSEEITNIELADAFEQMWQKRRYNELLFIIDTCQGASMYERFYSPNIMALASSQVGEDSLSHQPDPAIGVHLMDRYTFYVLEFLEEINPASQTNMNDLFQVCPKSLCVSTPGHRTDLFQRDPKNVLITDFFGSVRKVEITTETIKLQQDSEIMESSYKEDQMDEKLMEPLKYAEQLPVAQIIHQKPKLKDWHPPGGFILGLWALIIMVFFKTYGIKHMKFIF"

# These are yes or no findings as the source states them, for the method shown. In cells and extracts the contact can be indirect. A yes stands for co-enrichment or nearness to the bait. Other partners may have been found.
